Measured data: PubChem BioAssay AID504784 (Drosophila RNAi Screening Center, 2011)
Assay: 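Fly genes whose silencing alters how much lipid cells keep in droplets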 (primary screen). System: Drosophila Kc167 embryonic cells. Knock-down reagent: long dsRNA against Drosophila genes, about 250 ng dsRNA per well. Duration: 4 days. Treatment: cells fed 400 µM oleic acid bound to BSA. Read-out: 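Cells imaged and segmented; ratio of lipid droplet area to nuclear area, log-transformed, then normalised as a B-score over the screen; higher means more stored lipid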. Direction: droplet/nuclear area B-score: higher = more stored lipid (overstorage).
The screen tested about 17,000 reagents; below is an unselected part of those with a known target gene and a result. 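Each column is one replicate's B-score; the combined score over replicates was not deposited, so single values may mislead.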 Names joined by + are all predicted targets of the reagent.

predicted target | dsRNA | droplet/nuclear area B-score, replicate 1 | droplet/nuclear area B-score, replicate 2 | droplet/nuclear area B-score, replicate 3
CG12783 | DRSC14538 | -0.467 | 0.0227 | –
Syt1 | DRSC00156 | -0.0472 | 0.134 | –
Syt1 | DRSC00157 | 0.0783 | 1.88 | –
Syt1 | DRSC00158 | 0.0263 | 0.112 | –
Syt1 | DRSC00840 | -0.701 | -2.29 | –
Syt1 | DRSC22077 | -0.985 | -0.101 | –
Trs20 | DRSC10489 | -1.78 | 1.16 | –
eIF2alpha | DRSC20327 | 1.87 | 2.47 | –
Rbsn-5 | DRSC03094 | 1.8 | – | –
CG15916 | DRSC19740 | 0.152 | -0.728 | –
CG42613 | DRSC13332 | -0.0253 | 0.629 | –
CG42613 | DRSC14769 | -0.118 | -2.19 | –
CG42613 | DRSC15802 | 1.41 | -3.28 | –
px | DRSC04708 | -0.397 | 1.01 | –
px | DRSC23244 | -0.353 | 3.85 | –
CG12116 | DRSC17812 | -0.154 | 0.117 | –
CG5880 | DRSC15906 | 0.0212 | – | –
CG7573 | DRSC10884 | 1.34 | 0.0283 | –
CG12522 | DRSC09088 | -1.52 | -0.775 | –
TotA | DRSC13448 | 1.31 | -0.769 | –
TFAM | DRSC15552 | 0.0432 | 0.427 | –
CG10481 | DRSC02063 | -1.62 | 1.3 | –
btz | DRSC14566 | 2.41 | – | –
cpa | DRSC04080 | 1.13 | 1.08 | –
Bap111 | DRSC18419 | -3.89 | -1.94 | -0.071
Jhbp15 | DRSC15217 | 0.332 | -2.81 | –
CG7148 | DRSC11802 | 1.17 | -0.192 | -1.44
GCS2alpha | DRSC21036 | -0.392 | -1.31 | –
sqz | DRSC16980 | -0.37 | -0.353 | –
CG2964 | DRSC00554 | -0.0443 | 1.53 | –
Ubc6 | DRSC12370 | -2.94 | 0.418 | –
Glyp | DRSC00752 | 0.0227 | 1.56 | –
CG30430 | DRSC22260 | 0.302 | 0.803 | –
CG4338 | DRSC15564 | -0.812 | – | –
ac | DRSC18734 | 1.92 | 0.767 | –
Tps1 | DRSC00269 | 0.473 | -1.02 | –
CG11997 | DRSC14464 | -0.462 | 0.24 | –
hgo | DRSC03544 | 0.137 | -0.13 | –
Oscillin | DRSC03001 | 3.26 | -0.726 | 0.238
RpL8 | DRSC08532 | 1.33 | 1.95 | –
RpL8 | DRSC08695 | 2.34 | 2.02 | –
nAChRalpha7 | DRSC20078 | -0.662 | 5.22 | –
nAChRalpha7 | DRSC20081 | 1.57 | 0.165 | –
CG14882 | DRSC15006 | 0.00474 | 1.27 | –
cno | DRSC12054 | -1.37 | 1.29 | –
cno | DRSC12374 | 2.18 | – | –
cno | DRSC22980 | 2.12 | 2.86 | –
Prx6a | DRSC00565 | 3.31 | 0.268 | –
CG2202 | DRSC19841 | -0.405 | 0.418 | -0.123
CG12307 | DRSC02159 | 0.509 | 0.943 | –
futsch | DRSC17688 | -2.85 | -1.28 | –
futsch | DRSC17949 | -0.196 | -0.236 | -0.905
futsch | DRSC17952 | 0.0109 | 1.36 | –
futsch | DRSC18543 | -0.0151 | -1.68 | –
ais | DRSC10523 | 0.67 | -0.65 | -0.315
Eig71Ea | DRSC11148 | -0.142 | 0.0912 | –
CG1986 | DRSC18197 | -1.1 | 0.894 | 2.42
CG15880 | DRSC00474 | -0.0707 | 0.0282 | –
CG15141 | DRSC02441 | 0.235 | 0.139 | –
CG15141 | DRSC02442 | -1.58 | 0.702 | –
Qsox4 | DRSC14224 | 4.34 | -1.19 | –
Eglp4 | DRSC04438 | 1.1 | -0.514 | –
Cht5 | DRSC16470 | 7.39 | -0.0431 | -0.0282
nerfin-2 | DRSC14547 | -0.384 | -0.982 | –
ERp60 | DRSC07309 | -0.572 | 1.28 | –
Rga | DRSC12364 | 1.52 | 0.286 | –
CG43345 | DRSC03164 | -0.316 | 1.01 | –
CG6329 | DRSC06976 | -0.435 | 0.0183 | –
obst-A | DRSC20543 | -0.25 | -0.185 | –
betaggt-I | DRSC03494 | 2.11 | -1.09 | –
Nrd1 | DRSC19830 | 0.213 | -0.13 | -0.687
CG17883 | DRSC07838 | 0.213 | -0.0334 | –
PpD6 | DRSC00774 | 1.99 | 1.24 | –
PpD6 | DRSC23331 | 0.66 | 2.92 | –
Ice2 | DRSC14268 | -0.00947 | 4.33 | –
sxc | DRSC04911 | -2.57 | -0.267 | –
angel | DRSC04670 | 0.4 | -0.295 | –
angel | DRSC21326 | 0.223 | -0.145 | –
Sirt2 | DRSC15714 | -0.847 | -2.84 | –
CG42375 + CG9288 | DRSC16468 | 1.89 | 4.62 | –
asRNA:CR42743 + CG34162 | DRSC01190 | 0.00559 | -0.339 | –
CG17242 | DRSC00493 | 1.36 | 0.0796 | –
Opa1 | DRSC07191 | 1.38 | 1.47 | –
